# Results from PMC4421817.
# Chains of the proteins cited; added tags and fusions are not shown. Lines headed by an entry give the natural chain unless they say otherwise; changes in a name come on top.
# UniProt P31153: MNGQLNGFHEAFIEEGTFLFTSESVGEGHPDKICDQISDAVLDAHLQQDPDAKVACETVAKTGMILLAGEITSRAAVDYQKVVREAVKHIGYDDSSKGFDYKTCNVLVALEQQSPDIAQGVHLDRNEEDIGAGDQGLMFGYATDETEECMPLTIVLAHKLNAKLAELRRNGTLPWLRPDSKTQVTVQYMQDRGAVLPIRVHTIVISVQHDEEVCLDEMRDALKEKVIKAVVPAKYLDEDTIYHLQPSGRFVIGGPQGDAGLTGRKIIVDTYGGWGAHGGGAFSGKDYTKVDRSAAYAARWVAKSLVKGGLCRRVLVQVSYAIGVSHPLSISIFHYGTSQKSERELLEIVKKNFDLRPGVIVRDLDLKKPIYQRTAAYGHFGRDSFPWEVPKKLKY
# UniProt O15379: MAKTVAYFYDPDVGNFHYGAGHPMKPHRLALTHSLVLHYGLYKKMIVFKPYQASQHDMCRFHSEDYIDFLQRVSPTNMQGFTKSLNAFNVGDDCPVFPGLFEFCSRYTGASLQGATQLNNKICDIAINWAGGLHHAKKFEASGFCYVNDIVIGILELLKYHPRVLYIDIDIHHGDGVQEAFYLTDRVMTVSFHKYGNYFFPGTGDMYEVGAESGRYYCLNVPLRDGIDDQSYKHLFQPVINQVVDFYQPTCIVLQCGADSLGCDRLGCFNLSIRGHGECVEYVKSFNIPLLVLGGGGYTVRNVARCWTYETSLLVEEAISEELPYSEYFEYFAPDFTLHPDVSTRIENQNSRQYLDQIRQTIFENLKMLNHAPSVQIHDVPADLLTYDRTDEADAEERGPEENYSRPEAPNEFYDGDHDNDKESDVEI
# UniProt Q09472: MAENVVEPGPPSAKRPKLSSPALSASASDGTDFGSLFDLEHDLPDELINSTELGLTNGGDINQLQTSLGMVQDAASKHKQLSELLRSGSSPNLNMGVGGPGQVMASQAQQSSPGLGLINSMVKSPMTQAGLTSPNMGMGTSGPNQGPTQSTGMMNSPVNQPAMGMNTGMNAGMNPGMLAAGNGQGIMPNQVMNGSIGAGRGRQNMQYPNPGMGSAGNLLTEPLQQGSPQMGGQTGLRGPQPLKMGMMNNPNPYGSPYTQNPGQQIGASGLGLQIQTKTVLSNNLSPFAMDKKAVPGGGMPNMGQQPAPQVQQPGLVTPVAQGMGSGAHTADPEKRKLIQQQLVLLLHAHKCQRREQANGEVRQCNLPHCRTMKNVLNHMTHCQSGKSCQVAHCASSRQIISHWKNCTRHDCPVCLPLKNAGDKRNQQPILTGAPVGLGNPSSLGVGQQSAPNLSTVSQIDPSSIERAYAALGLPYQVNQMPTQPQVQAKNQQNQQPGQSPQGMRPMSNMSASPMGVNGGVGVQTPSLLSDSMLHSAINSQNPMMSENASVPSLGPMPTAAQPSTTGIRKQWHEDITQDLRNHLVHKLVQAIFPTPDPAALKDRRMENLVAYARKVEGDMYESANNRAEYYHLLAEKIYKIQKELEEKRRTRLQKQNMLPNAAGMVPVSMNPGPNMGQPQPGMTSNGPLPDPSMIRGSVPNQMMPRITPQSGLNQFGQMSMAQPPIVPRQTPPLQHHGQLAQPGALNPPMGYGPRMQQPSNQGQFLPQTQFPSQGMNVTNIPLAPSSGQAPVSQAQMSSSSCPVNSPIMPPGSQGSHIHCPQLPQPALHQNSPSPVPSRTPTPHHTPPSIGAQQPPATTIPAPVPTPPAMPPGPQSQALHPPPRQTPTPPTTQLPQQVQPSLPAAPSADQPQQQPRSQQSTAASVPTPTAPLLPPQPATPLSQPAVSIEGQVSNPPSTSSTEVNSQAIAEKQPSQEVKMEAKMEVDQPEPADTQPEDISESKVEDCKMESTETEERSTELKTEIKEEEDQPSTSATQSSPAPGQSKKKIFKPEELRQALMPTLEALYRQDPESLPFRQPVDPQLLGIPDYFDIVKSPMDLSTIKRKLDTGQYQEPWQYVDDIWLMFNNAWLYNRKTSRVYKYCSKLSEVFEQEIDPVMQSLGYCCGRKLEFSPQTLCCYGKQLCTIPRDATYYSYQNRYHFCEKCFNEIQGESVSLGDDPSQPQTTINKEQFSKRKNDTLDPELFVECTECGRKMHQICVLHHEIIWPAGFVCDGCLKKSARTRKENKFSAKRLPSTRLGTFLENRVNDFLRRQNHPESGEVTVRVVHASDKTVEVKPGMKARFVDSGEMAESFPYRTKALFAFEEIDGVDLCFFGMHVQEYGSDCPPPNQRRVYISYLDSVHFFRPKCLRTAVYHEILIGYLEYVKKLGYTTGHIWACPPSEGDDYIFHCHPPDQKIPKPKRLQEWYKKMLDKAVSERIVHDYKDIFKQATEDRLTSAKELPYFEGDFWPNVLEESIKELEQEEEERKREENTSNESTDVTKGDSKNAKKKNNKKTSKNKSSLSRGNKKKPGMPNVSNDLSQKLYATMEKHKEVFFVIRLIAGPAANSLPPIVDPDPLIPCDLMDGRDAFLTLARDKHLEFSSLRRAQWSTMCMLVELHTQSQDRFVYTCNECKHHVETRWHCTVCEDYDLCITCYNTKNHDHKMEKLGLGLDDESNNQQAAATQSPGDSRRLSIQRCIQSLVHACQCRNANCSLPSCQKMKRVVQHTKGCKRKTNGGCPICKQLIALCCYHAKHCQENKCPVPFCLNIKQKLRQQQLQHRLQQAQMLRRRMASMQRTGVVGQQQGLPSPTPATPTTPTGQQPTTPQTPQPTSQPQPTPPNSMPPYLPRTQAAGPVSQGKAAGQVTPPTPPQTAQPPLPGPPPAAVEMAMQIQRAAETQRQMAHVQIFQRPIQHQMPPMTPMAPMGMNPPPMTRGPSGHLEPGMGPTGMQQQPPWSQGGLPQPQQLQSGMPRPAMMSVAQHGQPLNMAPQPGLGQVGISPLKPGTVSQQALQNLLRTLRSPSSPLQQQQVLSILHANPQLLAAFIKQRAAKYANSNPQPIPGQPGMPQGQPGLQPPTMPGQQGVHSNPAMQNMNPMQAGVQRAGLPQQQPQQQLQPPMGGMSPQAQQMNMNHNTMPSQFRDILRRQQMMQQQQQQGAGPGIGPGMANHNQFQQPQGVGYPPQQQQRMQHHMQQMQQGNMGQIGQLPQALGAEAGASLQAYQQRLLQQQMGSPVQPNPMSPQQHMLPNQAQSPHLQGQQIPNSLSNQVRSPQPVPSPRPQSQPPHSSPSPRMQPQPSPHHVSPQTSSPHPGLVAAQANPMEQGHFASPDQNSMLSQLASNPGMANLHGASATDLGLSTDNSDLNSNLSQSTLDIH
# Results are given in words; binding and its absence hold for the method and conditions named. In cells and extracts the contact can be indirect. Some binding calls cover weakened binding; strength is not graded here.
# Legend:
# [1] = molecular target: endogenous MAT IIα (human (endogenous in HEK293T)) (UniProt P31153); test: co-IP; endogenous proteins; HEK293T cultured with or without folate for 48 h and treated with MG132 for 6 h before harvest; western blotting
# GST-MAT IIα (human) = GST-MAT IIα (human) (UniProt P31153); test: pull-down; GST-MAT IIα on GST antibody-conjugated beads, mixed with HEK293T cell lysate (0.3% Nonidet P40 buffer) at 4 °C overnight; non-induced E. coli as negative control; western blotting; only the target purified
# flag-MAT IIα (human) = flag-MAT IIα (human) (UniProt P31153); test: co-IP; HEK293T transfected with flag-MAT IIα, normal or folate-deprived culture; lysis in 0.3% Nonidet P40 buffer (150 mM NaCl, 50 mM Tris-HCl, pH 7.5); anti-flag M2 agarose 3 h at 4 °C; endogenous P300 detected by western blotting
binding [1],binding (GST-MAT IIα (human)),binding (flag-MAT IIα (human)),Substance
binds,binds,–,HDAC3 (histone deacetylase-3) (from UniProt O15379 1-428) (enzyme)
–,binds,binds,P300 (E1A binding protein) (from UniProt Q09472 1-2414) (enzyme)
